According to article PMC12047442:
These are yes or no findings as the source states them, for the method shown. In cells and extracts the contact can be indirect. Some binding calls cover weakened binding; strength is not graded here.

Biological target: T1, High-mobility group box 2 (HMGB2) (UniProt P30681)
T1 sequence: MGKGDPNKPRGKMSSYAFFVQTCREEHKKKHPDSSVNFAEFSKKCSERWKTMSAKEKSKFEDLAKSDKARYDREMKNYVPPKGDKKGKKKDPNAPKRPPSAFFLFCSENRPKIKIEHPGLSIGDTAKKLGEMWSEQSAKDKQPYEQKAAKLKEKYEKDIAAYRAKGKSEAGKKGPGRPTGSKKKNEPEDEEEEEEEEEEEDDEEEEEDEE
Assay: co-IP; cells lysed in radioimmunoprecipitation assay buffer with protease inhibitor, sonicated; lysates immunoprecipitated with antibodies on protein A/G agarose beads; immunoblot; cell line and bait not stated

binding: binds
B1: TRIM24 (protein, UniProt Q64127 1-1051)
chain: MEVAVEKAAAAAAPAGGPAAAAPSGENEAESRQGPDSESGGEASRLNLLDTCAVCHQNIQSRVPKLLPCLHSFCQRCLPAPQRYLMLTAPALGSAETPPPAPAPAPAPGSPAGGPSPFATQVGVIRCPVCSQECAERHIIDNFFVKDTTEVPSSTVEKSNQVCTSCEDNAEANGFCVECVEWLCKTCIRAHQRVKFTKDHTVRQKEEVSPEAVGVTSQRPVFCPFHKKEQLKLYCETCDKLTCRDCQLLEHKEHRYQFIEEAFQNQKVIIDTLITKLMEKTKYIKYTGNQIQNRIIEINQNQKQVEQDIKVAIFTLMVEINKKGKALLHQLESLAKDHRMKLMQQQQEVAGLSKQLEHVMHFSKWAVSSGSSTALLYSKRLITYRLRHLLRARCDASPVTNTTIQFHCDPSFWAQNIINLGSLVIEDKESQPQMPKQNPVVEQSSQPPGGLPSNQLSKFPTQISLAQLRLQHIQQQVMAQRQQVQRRPAPVGLPNPRMQGPIQQPSISHQHPPPRLINFQNHSPKPNGPVLPPYPQQLRYSPSQNVPRQTTIKPNPLQMAFLAQQAIKQWQISSVQAPPTTASSSSSTPSSPTITSAAGYDGKAFSSPMIDLSAPVGGSYNLPSLPDIDCSSTIMLDNIARKDTGVDHAQPRPPSNRTVQSPNSSVPSPGLAGPVTMTSVHPPIRSPSASSVGSRGSSGSSSKPAGADSTHKVPVVMLEPIRIKQENSGPPENYDFPVVIVKQESDEESRPQNTNYPRSILTSLLLNSSQSSASEETVLRSDAPDSTGDQPGLHQENSSNGKSEWSDASQKSPVHVGETRKEDDPNEDWCAVCQNGGELLCCEKCPKVFHLTCHVPTLTNFPSGEWICTFCRDLSKPEVDYDCDVPSHHSEKRKSEGLTKLTPIDKRKCERLLLFLYCHEMSLAFQDPVPLTVPDYYKIIKNPMDLSTIKKRLQEDYCMYTKPEDFVADFRLIFQNCAEFNEPDSEVANAGIKLESYFEELLKNLYPEKRFPKVEFRHEAEDCKFSDDSDDDFVQPRKKRLKSTEDRQLLK
